Source: publication PMC6710278

The chains behind the UniProt entries cited, without tags or fusion partners.
UniProt Q61188: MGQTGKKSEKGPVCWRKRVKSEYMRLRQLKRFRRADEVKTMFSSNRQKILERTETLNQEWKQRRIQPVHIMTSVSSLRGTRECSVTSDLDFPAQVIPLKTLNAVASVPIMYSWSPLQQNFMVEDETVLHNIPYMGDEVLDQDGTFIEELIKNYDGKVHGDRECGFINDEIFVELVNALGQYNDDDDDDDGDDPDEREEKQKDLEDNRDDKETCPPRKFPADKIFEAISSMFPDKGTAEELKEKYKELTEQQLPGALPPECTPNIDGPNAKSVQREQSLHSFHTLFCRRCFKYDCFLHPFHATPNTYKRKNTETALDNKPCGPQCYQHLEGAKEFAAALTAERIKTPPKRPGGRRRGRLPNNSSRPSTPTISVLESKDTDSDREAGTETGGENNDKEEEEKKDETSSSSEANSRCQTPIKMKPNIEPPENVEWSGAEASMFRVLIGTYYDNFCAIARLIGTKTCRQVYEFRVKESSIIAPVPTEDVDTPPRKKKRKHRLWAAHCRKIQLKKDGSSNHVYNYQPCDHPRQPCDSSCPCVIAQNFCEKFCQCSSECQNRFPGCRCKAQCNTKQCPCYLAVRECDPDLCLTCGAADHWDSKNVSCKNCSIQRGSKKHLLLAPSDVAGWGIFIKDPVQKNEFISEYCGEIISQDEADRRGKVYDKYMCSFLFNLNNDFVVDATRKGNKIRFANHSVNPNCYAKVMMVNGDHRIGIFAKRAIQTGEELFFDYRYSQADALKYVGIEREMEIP
UniProt P70351: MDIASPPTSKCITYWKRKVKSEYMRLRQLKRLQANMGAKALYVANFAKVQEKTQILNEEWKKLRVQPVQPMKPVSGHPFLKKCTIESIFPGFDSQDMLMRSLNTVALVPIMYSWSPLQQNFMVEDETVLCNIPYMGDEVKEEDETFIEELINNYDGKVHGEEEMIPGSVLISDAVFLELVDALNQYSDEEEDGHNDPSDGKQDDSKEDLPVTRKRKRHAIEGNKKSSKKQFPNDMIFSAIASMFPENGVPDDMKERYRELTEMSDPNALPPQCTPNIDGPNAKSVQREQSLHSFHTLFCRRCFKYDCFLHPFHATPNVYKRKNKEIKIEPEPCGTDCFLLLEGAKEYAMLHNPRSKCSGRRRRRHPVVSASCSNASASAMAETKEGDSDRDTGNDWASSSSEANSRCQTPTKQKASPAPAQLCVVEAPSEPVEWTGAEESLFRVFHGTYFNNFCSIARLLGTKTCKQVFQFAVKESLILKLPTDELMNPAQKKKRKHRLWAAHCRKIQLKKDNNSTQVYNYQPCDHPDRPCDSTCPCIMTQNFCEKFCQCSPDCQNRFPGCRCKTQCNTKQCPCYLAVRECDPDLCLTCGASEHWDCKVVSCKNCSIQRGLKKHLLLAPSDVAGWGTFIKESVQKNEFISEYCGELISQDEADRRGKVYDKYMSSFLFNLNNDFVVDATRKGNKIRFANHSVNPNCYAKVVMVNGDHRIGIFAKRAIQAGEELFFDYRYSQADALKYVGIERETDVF
UniProt Q02395: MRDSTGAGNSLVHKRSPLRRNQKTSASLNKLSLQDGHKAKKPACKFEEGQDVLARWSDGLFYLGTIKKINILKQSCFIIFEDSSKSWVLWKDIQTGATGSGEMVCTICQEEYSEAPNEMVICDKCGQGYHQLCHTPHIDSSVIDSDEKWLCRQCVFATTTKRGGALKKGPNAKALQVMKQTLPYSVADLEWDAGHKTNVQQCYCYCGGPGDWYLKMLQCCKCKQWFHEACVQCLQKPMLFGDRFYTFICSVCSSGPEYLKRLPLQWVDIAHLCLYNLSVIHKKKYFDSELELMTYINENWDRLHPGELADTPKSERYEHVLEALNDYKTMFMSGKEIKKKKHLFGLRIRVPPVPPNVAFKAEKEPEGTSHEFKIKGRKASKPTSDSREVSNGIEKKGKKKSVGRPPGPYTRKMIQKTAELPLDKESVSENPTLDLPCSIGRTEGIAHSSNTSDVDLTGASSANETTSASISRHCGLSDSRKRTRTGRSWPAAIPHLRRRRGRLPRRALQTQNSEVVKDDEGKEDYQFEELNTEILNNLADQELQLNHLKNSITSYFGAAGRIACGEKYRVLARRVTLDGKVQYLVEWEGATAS
UniProt Q9Z1B8: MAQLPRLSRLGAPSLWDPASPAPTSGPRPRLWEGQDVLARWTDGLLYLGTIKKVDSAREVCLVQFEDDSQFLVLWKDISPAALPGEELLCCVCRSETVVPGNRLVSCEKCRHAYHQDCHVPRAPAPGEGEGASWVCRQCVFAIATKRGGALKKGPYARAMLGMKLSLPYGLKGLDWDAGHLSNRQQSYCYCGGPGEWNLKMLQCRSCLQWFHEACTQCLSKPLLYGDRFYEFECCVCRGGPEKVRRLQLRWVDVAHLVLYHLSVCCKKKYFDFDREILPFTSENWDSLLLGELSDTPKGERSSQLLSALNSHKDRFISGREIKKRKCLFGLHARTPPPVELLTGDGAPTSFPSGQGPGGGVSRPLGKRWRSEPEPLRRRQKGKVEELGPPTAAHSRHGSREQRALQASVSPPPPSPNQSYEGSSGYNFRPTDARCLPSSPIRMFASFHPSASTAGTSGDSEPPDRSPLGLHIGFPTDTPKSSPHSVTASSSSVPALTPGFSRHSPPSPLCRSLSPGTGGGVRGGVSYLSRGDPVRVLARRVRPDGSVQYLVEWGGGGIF
UniProt Q93009: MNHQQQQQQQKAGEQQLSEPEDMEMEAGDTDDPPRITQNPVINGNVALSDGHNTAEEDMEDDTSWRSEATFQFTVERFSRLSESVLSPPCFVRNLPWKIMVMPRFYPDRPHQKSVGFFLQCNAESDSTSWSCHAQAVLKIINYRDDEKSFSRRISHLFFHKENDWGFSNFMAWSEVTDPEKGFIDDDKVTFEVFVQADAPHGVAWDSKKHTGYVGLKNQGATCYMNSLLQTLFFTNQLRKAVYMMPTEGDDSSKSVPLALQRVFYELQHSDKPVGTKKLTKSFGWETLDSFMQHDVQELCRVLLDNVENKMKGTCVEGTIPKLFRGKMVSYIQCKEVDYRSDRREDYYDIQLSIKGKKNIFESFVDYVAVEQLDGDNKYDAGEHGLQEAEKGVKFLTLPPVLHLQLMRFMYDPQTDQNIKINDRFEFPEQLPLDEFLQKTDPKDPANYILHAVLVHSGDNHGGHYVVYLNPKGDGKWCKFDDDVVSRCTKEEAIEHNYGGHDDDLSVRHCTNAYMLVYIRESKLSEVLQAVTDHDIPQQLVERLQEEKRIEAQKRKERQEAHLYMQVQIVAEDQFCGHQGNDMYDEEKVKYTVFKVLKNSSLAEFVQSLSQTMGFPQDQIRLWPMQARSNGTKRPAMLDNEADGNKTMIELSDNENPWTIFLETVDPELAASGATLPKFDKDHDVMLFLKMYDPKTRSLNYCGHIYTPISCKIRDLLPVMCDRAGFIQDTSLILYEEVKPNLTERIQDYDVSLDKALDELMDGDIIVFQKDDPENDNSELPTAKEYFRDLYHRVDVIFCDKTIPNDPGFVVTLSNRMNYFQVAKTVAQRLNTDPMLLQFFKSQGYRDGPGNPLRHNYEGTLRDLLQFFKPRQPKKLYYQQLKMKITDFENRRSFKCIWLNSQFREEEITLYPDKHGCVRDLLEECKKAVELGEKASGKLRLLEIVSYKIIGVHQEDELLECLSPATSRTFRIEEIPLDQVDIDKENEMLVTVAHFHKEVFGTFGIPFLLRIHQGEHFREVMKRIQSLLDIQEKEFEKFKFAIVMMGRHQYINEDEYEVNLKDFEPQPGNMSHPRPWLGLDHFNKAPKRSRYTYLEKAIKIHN

Tests used:
[1] = molecular target: N-terminal Flag-tagged EZH2 expressed from the endogenous locus (knock-in mouse) (mouse) (UniProt Q61188); test: affinity purification with mass spectrometry; single step Flag-IP (Flag M2 beads) from nuclear extract of adult mouse testes (EZH2-Flag or EZH1-Flag knock-in against WT control), three independent IPs, on-bead trypsin digestion, LC-MS/MS
[2] = molecular target: N-terminal Flag-tagged EZH1 expressed from the endogenous locus (knock-in mouse) (mouse) (UniProt P70351); test: as above
[3] = molecular target: T1, Flag-tagged human EZHIP overexpressed in HeLa-S3 cells (human) (UniProt Q86X51); test: affinity purification with mass spectrometry; single step Flag-IP from nuclear extract of HeLa-S3 cells overexpressing Flag-tagged mouse or human EZHIP against WT cells, n = 3, on-bead trypsin digestion, LC-MS/MS
T1 sequence: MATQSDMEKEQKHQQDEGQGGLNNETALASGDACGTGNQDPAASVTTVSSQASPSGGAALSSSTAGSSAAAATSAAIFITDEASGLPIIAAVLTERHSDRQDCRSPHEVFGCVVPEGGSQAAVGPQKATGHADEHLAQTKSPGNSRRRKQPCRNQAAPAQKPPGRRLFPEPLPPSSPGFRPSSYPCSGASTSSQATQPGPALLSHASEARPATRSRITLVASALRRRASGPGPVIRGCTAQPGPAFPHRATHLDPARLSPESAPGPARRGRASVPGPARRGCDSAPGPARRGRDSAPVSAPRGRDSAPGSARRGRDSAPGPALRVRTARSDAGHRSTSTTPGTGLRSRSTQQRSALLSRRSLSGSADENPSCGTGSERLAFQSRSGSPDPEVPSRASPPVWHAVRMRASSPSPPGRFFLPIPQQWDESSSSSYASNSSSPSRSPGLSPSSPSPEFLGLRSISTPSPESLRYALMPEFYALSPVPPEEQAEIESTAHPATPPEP

[4] = molecular target: T2, Flag-tagged mouse EZHIP overexpressed in HeLa-S3 cells (mouse) (UniProt B1B0V2); test: as above
T2 sequence: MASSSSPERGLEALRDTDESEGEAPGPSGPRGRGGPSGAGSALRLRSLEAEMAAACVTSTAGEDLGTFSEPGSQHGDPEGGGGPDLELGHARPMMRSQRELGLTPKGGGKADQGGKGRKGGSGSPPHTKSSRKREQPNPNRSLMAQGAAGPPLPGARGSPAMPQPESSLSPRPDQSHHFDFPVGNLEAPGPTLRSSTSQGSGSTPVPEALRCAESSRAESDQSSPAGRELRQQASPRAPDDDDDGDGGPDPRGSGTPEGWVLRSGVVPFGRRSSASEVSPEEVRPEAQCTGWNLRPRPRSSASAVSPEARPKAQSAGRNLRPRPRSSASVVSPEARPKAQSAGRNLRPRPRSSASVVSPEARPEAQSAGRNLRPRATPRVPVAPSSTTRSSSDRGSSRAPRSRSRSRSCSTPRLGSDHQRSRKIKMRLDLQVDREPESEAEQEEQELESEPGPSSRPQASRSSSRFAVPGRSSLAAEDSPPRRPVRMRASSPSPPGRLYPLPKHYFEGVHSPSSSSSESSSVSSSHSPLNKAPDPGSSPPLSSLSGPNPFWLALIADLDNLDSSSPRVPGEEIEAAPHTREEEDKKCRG

- binding [1]: binds
- binding [2]: binds
Molecule: MTF2 (mouse testis) (from UniProt Q02395 1-593)

- binding [1]: binds
- binding [2]: binds
Molecule: PHF1 (mouse testis) (from UniProt Q9Z1B8 1-559)

- binding [3]: binds
- binding [4]: binds
Molecule: USP7 (HeLa-S3) (from UniProt Q93009 1-1102)

- binding [2]: binds
B1: EZHIP (EZH1/2 inhibitory protein), the uncharacterized protein AU022751 (mouse testis) (protein, UniProt B1B0V2-1 1-589)
chain: T2 sequence

No constants are given. Whether binding was seen depends on the method and setting. In cells and extracts the contact can be indirect. A yes stands for co-enrichment or nearness to the bait. Other partners may have been found. For some of these results: Where a sequence is shown, tags or fusion partners need not be part of it. Each block holds one molecule with its values, some of them ahead of it.
